Measurements reported in PubChem BioAssay AID602196 (INSERM, 2012).

Assay: 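Genes whose knock-down alters cisplatin killing of lung cancer cells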
Cell system: human A549 lung cancer cells
Knock-down reagent: siRNA pair against human genes
Timing: 48 h transfection before cisplatin; time from cisplatin to read-out not stated
Challenge: cisplatin at a dose killing half of control-siRNA cells; exact dose and duration not given
Measurement: 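Shift in cisplatin death relative to control siRNA, from -50 (all cells die) to +50 (no cells die); siRNAs harmful on their own scored 0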
Reading the numbers: two-siRNA summed score (-2 to +2): higher = both siRNAs protect from cisplatin killing; -2 means both sensitise; mean protection from cisplatin (shift in death): higher = protection from cisplatin killing
Call rule: 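siRNAs harmful alone (LDH or WST-1) get 0; others get +1 for less and -1 for more cisplatin killing; genes are active when the two siRNAs give the same sign, summing to ±2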
Calls: active = both siRNAs shift cisplatin killing the same way; inactive = no consistent shift, or siRNA harmful alone
The deposit covers about 23,000 reagents; shown is a part drawn at random. 455 of them (2%) count as active. 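Active includes both protection and sensitisation; some change values fall well beyond the stated -50 to +50 range.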 Entries without a mark were called inactive. Reagents against one gene are numbered here. Further read-outs or replicates are left out here. No sequences are given here. The record does not give: the amount of reagent.

gene knocked down | reagent | two-siRNA summed score (-2 to +2) | mean protection from cisplatin (shift in death) (%)
EPSTI1 | 1 | -1 | -2.2
RPL34 | 1 | 1 | 5.6
SLC22A16 | 1 | 0 | 2.5
ZSCAN5A | 1 | 0 | 3.2
NACA2 | 1 | 0 | 5.2
NACA2 | 2 | 0 | 13.6
MAPKAP1 | 1 | -1 | -8.7
TNNI3 | 1 | 0 | -1.7
ESCO1 | 1 | 0 | -0.8
ITGAL | 1 | -1 | -8.6
AMY2B | 1 | 1 | 19.6
CLEC4M | 1 | 1 | 11.7
LOC132241 | 1 | 0 | 7.9
LOC441168 | 1 | 0 | 13.2
SIKE1 | 1 | 0 | 14
STC1 | 1 | 0 | 9.8
LOC390231 | 1 | 2 (active) | 14.4
ADNP | 1 | 0 | -10
USP2 | 1 | 0 | 1.3
OR5M10 | 1 | 0 | 7.2
ZNF334 | 1 | 0 | 7.2
GKN1 | 1 | -1 | -10.7
HECW1 | 1 | 0 | 7.8
PCDH7 | 1 | 1 | 13.9
PLAC8 | 1 | 0 | 11.1
LOC441496 | 1 | 0 | 9.2
SLCO4A1 | 1 | 0 | 7.4
CRB2 | 1 | 0 | -2.7
TPR | 1 | 0 | 6.7

Next part, starting with the last 8 of the part before.
gene knocked down | reagent | two-siRNA summed score (-2 to +2) | mean protection from cisplatin (shift in death) (%)
GKN1 | 1 | -1 | -10.7
HECW1 | 1 | 0 | 7.8
PCDH7 | 1 | 1 | 13.9
PLAC8 | 1 | 0 | 11.1
LOC441496 | 1 | 0 | 9.2
SLCO4A1 | 1 | 0 | 7.4
CRB2 | 1 | 0 | -2.7
TPR | 1 | 0 | 6.7
LOC401034 | 1 | 0 | 4.6
MGC27277 | 1 | 0 | -2.2
OR2A4 | 1 | 0 | -1.4
FLJ36032 | 1 | 0 | 0.7
ITGAD | 1 | 0 | -2.5
OR5T2 | 1 | 0 | 9.3
RNASEL | 1 | 0 | 9.6
ABCC11 | 1 | 0 | 10.7
DNPH1 | 1 | 0 | 4.5
KIF4A | 1 | -1 | -18.7
TMEM138 | 1 | 0 | 4.1
CAPZB | 1 | 0 | 4.7
LOC441375 | 1 | 0 | 4.6
OGFRP1 | 1 | 1 | 29.2
PCBP3 | 1 | 0 | 7.8
CRIP2 | 1 | 0 | -1.9
LOC130063 | 1 | 0 | 8.9
LOC441834 | 1 | 0 | 13.4
VGLL2 | 1 | 0 | 1
CYTH1 | 1 | 0 | 1.6
ZNF215 | 1 | 1 | 5.6
DSG4 | 1 | 0 | 7.2
DTD1 | 1 | 0 | -11.6
UBE2N | 1 | -1 | -15.7
MAPKAPK3 | 1 | 0 | 5
LOC401915 | 1 | -1 | -4.1
LINC00879 | 1 | 0 | 5.3
KCNH2 | 1 | 0 | 4.4
